Biological target: T1, 5-HT1D (r) (Rattus norvegicus, UniProt P28565)
T1 construct: host or cells: CHO cells
Test: Competition assay to measure binding affinity at 5-HT1D receptor
Conditions: test ligand 10 μM; [3H]serotonin 1 nM

By UniProt entry, the sequences of proteins in these tests, tags left out. Where a name states a change or a piece, a line headed by the entry shows the natural chain unless it says otherwise.
UniProt P28565: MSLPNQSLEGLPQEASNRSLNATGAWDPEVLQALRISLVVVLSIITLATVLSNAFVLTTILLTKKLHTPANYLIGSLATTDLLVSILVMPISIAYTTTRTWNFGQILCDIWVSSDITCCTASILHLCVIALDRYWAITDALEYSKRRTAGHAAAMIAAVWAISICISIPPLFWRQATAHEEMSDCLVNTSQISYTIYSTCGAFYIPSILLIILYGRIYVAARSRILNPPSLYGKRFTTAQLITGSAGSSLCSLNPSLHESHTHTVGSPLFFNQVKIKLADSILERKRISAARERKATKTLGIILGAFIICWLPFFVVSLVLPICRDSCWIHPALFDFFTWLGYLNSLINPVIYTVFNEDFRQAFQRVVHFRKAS

Compound: O=c1n(CCCN2CCN(c3cccc(Cl)c3)CC2)nc2ccccn12 [Trazodone, reference compound]
- HT1D, percent of control-specific binding: 92%

Reference: patent US12428408B2, “Fused heterocyclic mescaline derivatives” (Enveric Biosciences Canada Inc., priority 2022, dated 2025)
